Measurements published in article PMC5312389.
Numbering of substitutions follows the chain as printed. No constants are given. Whether binding was seen depends on the method and setting. In cells and extracts the contact can be indirect. Some entries that bind do so weakly or less than the wild type. For some assays here: Sequences can lack the tags named with a protein.

By UniProt entry, the sequences of proteins in these tests, tags left out. Where a name states a change or a piece, a line headed by the entry shows the natural chain unless it says otherwise.
UniProt Q96EB6: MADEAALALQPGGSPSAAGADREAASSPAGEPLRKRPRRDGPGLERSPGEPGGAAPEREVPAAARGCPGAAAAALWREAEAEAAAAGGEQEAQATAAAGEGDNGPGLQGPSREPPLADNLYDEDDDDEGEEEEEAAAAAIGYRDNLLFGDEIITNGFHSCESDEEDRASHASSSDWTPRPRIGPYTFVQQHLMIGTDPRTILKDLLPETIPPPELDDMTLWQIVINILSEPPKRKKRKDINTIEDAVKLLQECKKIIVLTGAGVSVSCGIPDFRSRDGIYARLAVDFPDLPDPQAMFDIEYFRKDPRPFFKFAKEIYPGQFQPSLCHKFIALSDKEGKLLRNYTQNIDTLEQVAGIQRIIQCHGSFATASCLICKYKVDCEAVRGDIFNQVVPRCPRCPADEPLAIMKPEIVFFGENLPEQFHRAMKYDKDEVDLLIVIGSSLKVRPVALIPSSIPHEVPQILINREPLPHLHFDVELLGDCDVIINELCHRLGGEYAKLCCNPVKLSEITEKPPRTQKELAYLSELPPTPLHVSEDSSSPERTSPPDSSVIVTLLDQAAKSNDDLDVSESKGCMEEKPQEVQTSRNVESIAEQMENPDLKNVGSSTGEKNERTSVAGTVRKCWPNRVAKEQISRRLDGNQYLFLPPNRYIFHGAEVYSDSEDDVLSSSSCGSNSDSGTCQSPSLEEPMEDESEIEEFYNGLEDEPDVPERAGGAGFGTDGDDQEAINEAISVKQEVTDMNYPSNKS
UniProt P06493: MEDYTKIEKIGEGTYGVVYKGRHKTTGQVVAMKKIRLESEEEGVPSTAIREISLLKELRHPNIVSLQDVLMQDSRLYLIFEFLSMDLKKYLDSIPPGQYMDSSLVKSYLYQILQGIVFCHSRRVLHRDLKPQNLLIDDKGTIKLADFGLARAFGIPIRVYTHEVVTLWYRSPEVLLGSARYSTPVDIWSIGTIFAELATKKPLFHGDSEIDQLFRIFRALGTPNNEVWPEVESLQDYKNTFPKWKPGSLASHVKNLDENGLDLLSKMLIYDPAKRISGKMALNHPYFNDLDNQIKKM
UniProt Q09472: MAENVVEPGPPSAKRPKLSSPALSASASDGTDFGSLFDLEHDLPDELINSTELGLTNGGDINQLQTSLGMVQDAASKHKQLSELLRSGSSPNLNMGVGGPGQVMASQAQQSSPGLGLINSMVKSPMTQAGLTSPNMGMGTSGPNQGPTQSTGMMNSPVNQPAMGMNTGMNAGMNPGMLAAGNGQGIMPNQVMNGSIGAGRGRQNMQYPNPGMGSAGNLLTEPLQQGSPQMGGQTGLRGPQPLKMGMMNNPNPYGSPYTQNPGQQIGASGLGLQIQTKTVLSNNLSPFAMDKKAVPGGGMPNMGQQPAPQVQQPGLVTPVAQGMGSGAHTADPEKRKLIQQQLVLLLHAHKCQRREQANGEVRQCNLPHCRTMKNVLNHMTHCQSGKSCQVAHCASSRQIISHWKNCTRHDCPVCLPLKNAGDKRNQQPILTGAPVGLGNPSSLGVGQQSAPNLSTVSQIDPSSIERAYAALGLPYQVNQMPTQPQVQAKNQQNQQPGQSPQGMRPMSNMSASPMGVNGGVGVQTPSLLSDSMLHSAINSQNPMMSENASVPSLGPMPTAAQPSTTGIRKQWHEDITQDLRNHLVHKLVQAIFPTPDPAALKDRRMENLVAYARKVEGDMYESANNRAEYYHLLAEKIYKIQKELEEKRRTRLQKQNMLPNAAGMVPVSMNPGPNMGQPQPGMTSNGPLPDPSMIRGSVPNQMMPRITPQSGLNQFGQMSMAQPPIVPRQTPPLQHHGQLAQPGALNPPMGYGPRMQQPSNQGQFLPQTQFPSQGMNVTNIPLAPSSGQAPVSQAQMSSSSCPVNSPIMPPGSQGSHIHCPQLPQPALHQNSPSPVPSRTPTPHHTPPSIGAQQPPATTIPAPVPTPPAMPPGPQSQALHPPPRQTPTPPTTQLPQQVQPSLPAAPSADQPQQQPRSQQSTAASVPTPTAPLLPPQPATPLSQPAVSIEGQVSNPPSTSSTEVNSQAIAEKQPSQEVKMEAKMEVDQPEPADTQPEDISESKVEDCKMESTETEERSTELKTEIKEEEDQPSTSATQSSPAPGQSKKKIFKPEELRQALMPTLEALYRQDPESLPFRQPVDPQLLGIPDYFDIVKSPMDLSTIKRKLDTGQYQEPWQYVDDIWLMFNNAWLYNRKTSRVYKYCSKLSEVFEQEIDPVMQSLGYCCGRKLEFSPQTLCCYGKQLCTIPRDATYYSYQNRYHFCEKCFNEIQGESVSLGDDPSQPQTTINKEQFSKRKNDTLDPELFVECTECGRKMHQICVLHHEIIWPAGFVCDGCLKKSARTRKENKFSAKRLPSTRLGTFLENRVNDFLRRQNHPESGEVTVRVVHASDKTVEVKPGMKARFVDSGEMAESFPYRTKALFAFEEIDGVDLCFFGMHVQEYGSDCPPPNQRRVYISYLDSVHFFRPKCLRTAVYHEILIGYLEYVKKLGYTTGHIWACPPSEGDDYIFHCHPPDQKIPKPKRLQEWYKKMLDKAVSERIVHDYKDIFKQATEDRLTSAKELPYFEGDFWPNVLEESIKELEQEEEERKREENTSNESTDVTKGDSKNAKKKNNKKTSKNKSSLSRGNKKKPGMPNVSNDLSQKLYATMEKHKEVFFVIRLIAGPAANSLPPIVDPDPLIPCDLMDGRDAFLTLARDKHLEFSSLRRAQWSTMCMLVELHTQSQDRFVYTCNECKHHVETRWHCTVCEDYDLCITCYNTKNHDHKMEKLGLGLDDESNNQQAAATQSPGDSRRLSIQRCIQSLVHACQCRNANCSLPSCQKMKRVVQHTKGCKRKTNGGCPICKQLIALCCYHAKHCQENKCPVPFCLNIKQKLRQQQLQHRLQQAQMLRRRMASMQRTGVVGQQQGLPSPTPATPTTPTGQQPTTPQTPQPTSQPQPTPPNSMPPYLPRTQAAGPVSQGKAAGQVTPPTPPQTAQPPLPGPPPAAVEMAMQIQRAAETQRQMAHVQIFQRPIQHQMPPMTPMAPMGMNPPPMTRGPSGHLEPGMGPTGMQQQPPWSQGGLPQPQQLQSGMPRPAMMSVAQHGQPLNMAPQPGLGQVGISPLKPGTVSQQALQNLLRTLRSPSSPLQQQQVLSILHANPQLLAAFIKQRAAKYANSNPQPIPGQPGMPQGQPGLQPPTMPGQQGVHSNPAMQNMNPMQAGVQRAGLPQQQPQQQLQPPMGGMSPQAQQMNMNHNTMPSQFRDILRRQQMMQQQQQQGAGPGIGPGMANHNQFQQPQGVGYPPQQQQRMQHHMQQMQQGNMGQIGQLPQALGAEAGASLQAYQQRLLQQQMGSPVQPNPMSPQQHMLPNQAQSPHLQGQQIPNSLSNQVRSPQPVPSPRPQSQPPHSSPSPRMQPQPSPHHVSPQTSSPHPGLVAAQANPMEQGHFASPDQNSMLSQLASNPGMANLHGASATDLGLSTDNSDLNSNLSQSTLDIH

T1: FLAG-FOXM1 wild type, expressed in U2OS cells (UniProt Q08050)
T1 sequence: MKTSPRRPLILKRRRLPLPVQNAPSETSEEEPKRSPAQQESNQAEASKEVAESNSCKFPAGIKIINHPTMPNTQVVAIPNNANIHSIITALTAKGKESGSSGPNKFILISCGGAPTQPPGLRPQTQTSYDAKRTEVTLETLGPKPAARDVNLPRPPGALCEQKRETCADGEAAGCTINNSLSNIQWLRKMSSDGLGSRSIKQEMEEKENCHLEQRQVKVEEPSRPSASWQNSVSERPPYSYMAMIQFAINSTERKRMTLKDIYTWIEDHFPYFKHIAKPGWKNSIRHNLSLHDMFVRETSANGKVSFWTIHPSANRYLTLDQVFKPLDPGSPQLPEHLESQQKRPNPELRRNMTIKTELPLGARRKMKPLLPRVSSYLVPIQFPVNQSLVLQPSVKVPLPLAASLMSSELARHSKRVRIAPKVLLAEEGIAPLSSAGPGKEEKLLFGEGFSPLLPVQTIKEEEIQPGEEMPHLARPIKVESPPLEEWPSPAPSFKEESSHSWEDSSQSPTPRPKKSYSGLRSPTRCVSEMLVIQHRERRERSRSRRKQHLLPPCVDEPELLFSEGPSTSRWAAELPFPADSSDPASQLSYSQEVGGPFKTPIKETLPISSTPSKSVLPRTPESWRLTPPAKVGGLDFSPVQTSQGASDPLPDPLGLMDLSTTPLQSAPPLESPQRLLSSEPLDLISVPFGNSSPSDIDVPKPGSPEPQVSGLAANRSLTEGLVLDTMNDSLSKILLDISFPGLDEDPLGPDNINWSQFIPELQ

T2: FLAG-FOXM1-5KR, expressed in U2OS cells (UniProt Q08050)
T2 sequence: T1 sequence with K63R, K422R, K440R, K603R, K614R

T3: FOXM1 (Forkhead box transcription factor M1), endogenous in U2OS cells (human (endogenous in U2OS)) (UniProt Q08050)
T3 sequence: T1 sequence

B1: FLAG-FOXM1 wild type, expressed in HEK293T cells (protein, UniProt Q08050 1-763)
chain: T1 sequence

How the values were obtained:
[1] = molecular target: T1, FLAG-FOXM1 wild type, expressed in U2OS cells; assay: co-IP; U2OS cells transfected with FLAG-FOXM1 WT, 5KR or 5KQ; immunoprecipitation with anti-FLAG, blots with anti-FOXM1, PLK1, Cyclin B1 and CDK1 antibodies
[2] = molecular target: T2, FLAG-FOXM1-5KR, expressed in U2OS cells; assay: as above
[3] = molecular target: T3, FOXM1 (Forkhead box transcription factor M1), endogenous in U2OS cells (human (endogenous in U2OS)); assay: co-IP; U2OS cell extracts immunoprecipitated with anti-FOXM1, blots of endogenous partners; cells synchronized by double thymidine block and released, or arrested with 300 ng/ml nocodazole for 16 h and released; lysis buffer 50 mM Tris-HCl pH 8.0, 150 mM NaCl, 0.5% NP40, 4 °C
[4] = molecular target: HA-SIRT1, expressed in HEK293T cells (UniProt Q96EB6); assay: co-IP; HEK293T cells transfected with HA-SIRT1 and FLAG-FOXM1; immunoprecipitation with HA or FLAG antibody (IgG as control), blots with anti-HA and anti-FLAG

Molecule | binding [1] | binding [2] | binding [3] | binding [4]
Cdk1-cyclin B1 complex, endogenous in U2OS cells (from UniProt P06493 1-297; P14635 1-433) | binds | binds | binds | 
p300, endogenous in U2OS cells (from UniProt Q09472 1-2414) |  |  | binds | 
B1 |  |  |  | binds
